# According to patent publication US20230225990A1, “DIMETHYL SULFONE FOR TREATMENT OF CHRONICALLY HEAT STRESSED POULTRY” (Evonik Operations GmbH, priority 2020, published 2023):
# Marks after values point to notes of the source that are not given here.
# Assays:
# [1] = system: male broilers subjected to chronic cyclic heat stress; test: Carcass yield and portions on d-40; type: in vivo, broiler chickens (Ross 308); settings: d-40, relative to bird body weight
# From the text: Sampling of two birds per pen (with weight close to average weight of the pen) on d-40 after overnight fasting (no heat stress that day) • Carcass yield, breast percentage, thigh percentage, drumstick percentage and abdominal fat • Carcass yield: with skin, bled, without internal organs, without feet, without head, without neck, without abdominal fat; relative to bird body weight • Breast percentage: skinless, boneless; relative to bird body weight • Thigh percentage: with skin, with bone; relative to bird body weight • Drumstick percentage: with skin, with bone; relative to bird body weight • Abdominal fat percentage: abdominal fat; relative to bird body weight • Breast meat quality • Scoring of breast myopathies (wooden breast and white striping) • Wooden breast: normal, 0; mild, 1 and severe, 2 • White striations: normal, 0; mild, 1, and severe, 2 • pH and colour, both at time 0 h and 24 h (after sampling at time 0 h, breasts are stored at 4° C. until 24 h) • Drip loss, determined for periods 0-24 h and for period 0-72 h (after sampling at time 0 h, breasts are stored at 4° C. until 72 h, and weight without exuded water at 24 h and 72 h) • Press loss, determined at 24 h (after sampling at time 0 h, breasts are stored at 4° C. until 24 h, prior to determine press loss) • Oxidative stability (TBARS after simulated retail display)
# [2] = system: male broilers subjected to chronic cyclic heat stress; test: Breast meat characteristics on d-40; type: in vivo, broiler chickens (Ross 308); settings: for Drip loss 0-24 h / Drip loss 0-72 h / Press loss / TBARS: breast; for Drip loss 0-24 h / Drip loss 0-72 h / Breast colour L* 0 h / Breast colour a* 0 h / Breast colour b* 0 h / Breast pH 0 h: d-40; for Press loss: determined at 24 h; for TBARS: oxidative stability after simulated retail display; for White striations 0 h / White striations 24 h / Wooden breast 0 h / Wooden breast 24 h: count per level normal 0/mild 1/severe 2; for Breast colour L* 24 h / Breast colour a* 24 h / Breast colour b* 24 h / Breast pH 24 h: d-40, stored at 4° C.
structure (smiles),measurement,setting,value
"CS(C)(=O)=O [DMS, dimethyl sulfone]",Abdominal fat,[1]; 0.1% DMS in diet (T2),1.1%
same,Breast percentage,[1]; 0.1% DMS in diet (T2),23.4%
same,Carcass yield,[1]; 0.1% DMS in diet (T2),74.9%
same,Drumstick,[1]; 0.1% DMS in diet (T2),10.0%
same,Thigh percentage,[1]; 0.1% DMS in diet (T2),11.1%
same,Abdominal fat,[1]; 0.2% DMS in diet (T3),1.1%
same,Breast percentage,[1]; 0.2% DMS in diet (T3),24.1%
same,Carcass yield,[1]; 0.2% DMS in diet (T3),75.9%
same,Drumstick,[1]; 0.2% DMS in diet (T3),10.2%
same,Thigh percentage,[1]; 0.2% DMS in diet (T3),11.2%
same,Drip loss 0-24 h,[2]; 0.1% DMS in diet (T2),2.0%
same,Drip loss 0-72 h,[2]; 0.1% DMS in diet (T2),2.7%
same,Press loss,[2]; 0.1% DMS in diet (T2),20.4%
same,TBARS,[2]; 0.1% DMS in diet (T2),0.125 μg MDA/g
same,White striations 0 h,[2]; 0.1% DMS in diet (T2),21/1/0
same,White striations 24 h,[2]; 0.1% DMS in diet (T2),21/1/0
same,Wooden breast 0 h,[2]; 0.1% DMS in diet (T2),19/3/0
same,Wooden breast 24 h,[2]; 0.1% DMS in diet (T2),15/7/0
same,Breast colour L* 0 h,[2]; 0.1% DMS in diet (T2),56.7
same,Breast colour a* 0 h,[2]; 0.1% DMS in diet (T2),3.6
same,Breast colour b* 0 h,[2]; 0.1% DMS in diet (T2),15.4
same,Breast pH 0 h,[2]; 0.1% DMS in diet (T2),6.8
same,Breast colour L* 24 h,[2]; 0.1% DMS in diet (T2),56.7
same,Breast colour a* 24 h,[2]; 0.1% DMS in diet (T2),5.0
same,Breast colour b* 24 h,[2]; 0.1% DMS in diet (T2),16.7^b
same,Breast pH 24 h,[2]; 0.1% DMS in diet (T2),6.0
same,Drip loss 0-24 h,[2]; 0.2% DMS in diet (T3),1.8%
same,Drip loss 0-72 h,[2]; 0.2% DMS in diet (T3),2.7%
same,Press loss,[2]; 0.2% DMS in diet (T3),20.4%
same,TBARS,[2]; 0.2% DMS in diet (T3),0.122 μg MDA/g
same,White striations 0 h,[2]; 0.2% DMS in diet (T3),20/4/0
same,White striations 24 h,[2]; 0.2% DMS in diet (T3),18/6/0
same,Wooden breast 0 h,[2]; 0.2% DMS in diet (T3),22/2/0
same,Wooden breast 24 h,[2]; 0.2% DMS in diet (T3),12/12/0
same,Breast colour L* 0 h,[2]; 0.2% DMS in diet (T3),56.9
same,Breast colour a* 0 h,[2]; 0.2% DMS in diet (T3),3.5
same,Breast colour b* 0 h,[2]; 0.2% DMS in diet (T3),15.5
same,Breast pH 0 h,[2]; 0.2% DMS in diet (T3),6.8
same,Breast colour L* 24 h,[2]; 0.2% DMS in diet (T3),56.2
same,Breast colour a* 24 h,[2]; 0.2% DMS in diet (T3),5.3
same,Breast colour b* 24 h,[2]; 0.2% DMS in diet (T3),17.3^ab
same,Breast pH 24 h,[2]; 0.2% DMS in diet (T3),6.0
